Results taken from patent publication US12723053B2, “KRas inhibitors” (ELI LILLY AND COMPANY, priority 2023, dated 2026).
Some entries share one result that the patent states for a list of compounds.

Assays:
HRAS = HRAS (Homo sapiens, UniProt P01112); assay: Cellular Phospho-ERK AlphaLISA assay, MEF-HRAS cells; type: cell-based, mouse; conditions: RAS-less MEFs expressing HRAS only; read-out: relative IC50, phospho-ERK, MEF-HRAS
KRAS G12V = biological target: T1, KRAS G12V (Homo sapiens, UniProt P01116, G12V); assay: Cellular Phospho-ERK AlphaLISA assay, SW620 cells; type: cell-based; conditions: for selective inhibition preference for KRas G12V mutant over HRAS and NRAS: SW620 vs MEF-NRAS or MEF-HRAS Phospho-ERK AlphaLISA; for IC50: 2 h incubation, read-out: relative IC50, reduction of phosphorylated ERK-1/2, cells expressing KRAS G12V
T1 construct: endogenous in cells; host or cells: SW620 human colorectal cancer cells

NRAS = NRAS (Homo sapiens, UniProt P01111); assay: Cellular Phospho-ERK AlphaLISA assay, MEF-NRAS cells; type: cell-based, mouse; conditions: RAS-less MEFs expressing NRAS only; read-out: relative IC50, phospho-ERK, MEF-NRAS

Row | Compound | IC50 (HRAS) [nM] | selective inhibition preference for KRas G12V mutant over HRAS and NRAS (KRAS G12V) | IC50 (NRAS) [nM] | IC50 (KRAS G12V) [nM]
1 | CN(C)[C@@H]1CCN(c2ncc3c4c(c(-c5ccc(F)c6sc(N)c(C#N)c56)c(Cl)c3n2)COC4)C1 (single isomer, unassigned; atropisomer 1) [Example 72A] | > 2000 | greater than 10 fold | > 2000 | 
2 | C[C@H](O)CN[C@H]1CCN(c2ncc3c4c(c(-c5ncc(F)c6sc(N)c(C#N)c56)c(Cl)c3n2)COC4)[C@H]1C (single isomer, unassigned; atropisomer 1) [Example 74C] | > 2000 | greater than 10 fold | > 2000 | 
3 | N#Cc1c(N)sc2c(F)cnc(-c3c4c(c5cnc(N6C[C@@H]7NCC[C@@H]76)nc5c3F)COC4)c12 [Example 8C, 4-(3-((1S,5S)-2,6-Diazabicyclo[3.2.0]heptan-6-yl)-5-fluoro-7,9-dihydrofuro[3,4-f]quinazolin-6-yl)-2-amino-7-fluorothieno[3,2-c]pyridine-3-carbonitrile] | > 2000 | greater than 10 fold | > 2000 | 
4 | CN1CCC12CN(c1ncc3c4c(c(-c5c(F)ccc6sc(N)c(C#N)c56)c(F)c3n1)COC4)C2 [Example 130B, 2-Amino-5-fluoro-4-(5-fluoro-3-(1-methyl-1,6-diazaspiro[3.3]heptan-6-yl)-7,9-dihydrofuro[3,4-f]quinazolin-6-yl)benzo[b]thiophene-3-carbonitrile] |  | greater than 10 fold |  | 
5 | CN(C)[C@@H]1CN(c2ncc3c4c(c(-c5c(F)ccc6sc(N)c(C#N)c56)c(F)c3n2)COC4)C[C@@H]1O [Example 131B, 2-Amino-4-(3-((3R,4S)-3-(dimethylamino)-4-hydroxypyrrolidin-1-yl)-5-fluoro-7,9-dihydrofuro[3,4-f]quinazolin-6-yl)-5-fluorobenzo[b]thiophene-3-carbonitrile] |  | greater than 10 fold |  | 
6 | CN1C[C@@H]2CN(c3ncc4c5c(c(-c6c(F)ccc7sc(N)c(C#N)c67)c(F)c4n3)COC5)C[C@@H]2C1 [Example 148B, 2-Amino-5-fluoro-4-(5-fluoro-3-((3aR,6aS)-5-methylhexahydropyrrolo-[3,4-c]pyrrol-2(1H)-yl)-7,9-dihydrofuro[3,4-f]-quinazolin-6-yl)benzo-[b]thiophene-3-carbo-nitrile] |  |  |  | < 500
7 | C[C@H]1[C@@H](NC23CC(O)(C2)C3)CCN1c1ncc2c3c(c(-c4ncc(F)c5sc(N)c(C#N)c45)c(F)c2n1)COC3 [Example 167D, 2-Amino-7-fluoro-4-(5-fluoro-3-((2S,3S)-3-((3-hydroxybicyclo[1.1.1]pentan-1-yl)amino)-2-methylpyrrolidin-1-yl)-7,9-dihydrofuro[3,4-f]quinazolin-6-yl)thieno[3,2-c]pyridine-3-carbonitrile] |  | greater than 10 fold |  | 
8 | C[C@H]1[C@@H](NC(C)(C)CF)CCN1c1ncc2c3c(c(-c4ncc(F)c5sc(N)c(C#N)c45)c(F)c2n1)COC3 [Example 168D, 2-Amino-7-fluoro-4-(5-fluoro-3-((2S,3S)-3-(3-fluoro-2,2-dimethylpropyl)-2-methylpyrrolidin-1-yl)-7,9-dihydrofuro[3,4-f]quinazolin-6-yl)thieno[3,2-c]pyridine-3-carbonitrile] |  | greater than 10 fold |  | 
9 | CC(C)N[C@H]1CN(c2ncc3c4c(c(-c5ncc(F)c6sc(N)c(C#N)c56)c(F)c3n2)COC4)C[C@@H]1O [Example 175D, 2-Amino-7-fluoro-4-(5-fluoro-3-((3S,4S)-3-hydroxy-4-(isopropylamino)pyrrolidin-1-yl)-7,9-dihydrofuro[3,4-f]quinazolin-6-yl)thieno[3,2-c]pyridine-3-carbonitrile] |  |  |  | < 500
10 | CC(C)N[C@@H]1CN(c2ncc3c4c(c(-c5ncc(F)c6sc(N)c(C#N)c56)c(F)c3n2)COC4)C[C@H]1O [Example 177D, 2-Amino-7-fluoro-4-(5-fluoro-3-((3R,4R)-3-hydroxy-4-(isopropylamino)pyrrolidin-1-yl)-7,9-dihydrofuro[3,4-f]quinazolin-6-yl)thieno[3,2-c]pyridine-3-carbonitrile] |  |  |  | < 500

Next, values leading:

Row | IC50 (HRAS) [nM] | selective inhibition preference for KRas G12V mutant over HRAS and NRAS (KRAS G12V) | IC50 (NRAS) [nM] | IC50 (KRAS G12V) [nM] | Compound
11 | > 2000 | greater than 10 fold | > 2000 |  | C[C@H](O)CN1CCCC2C1CCN2c1ncc2c3c(c(-c4ncc(F)c5sc(N)c(C#N)c45)c(F)c2n1)COC3 (single isomer, unassigned; isomer 1) [Example 212D]
12 | > 2000 | greater than 10 fold | > 2000 |  | CN(C)C1CN(c2ncc3c4c(c(-c5ncc(F)c6sc(N)c(C#N)c56)c(F)c3n2)COC4)C2COCC12 (single isomer, unassigned; isomer 2) [Example 268D, 2-Amino-4-(3-(3-(dimethylamino)hexa-hydro-1H-furo[3,4-b]-pyrrol-1-yl)-5-fluoro-7,9-dihydrofuro[3,4-f]-quinazolin-6-yl)-7-fluorothieno[3,2-c]-pyridine-3-carbonitrile, Isomer 2]
13 |  |  |  | < 500 | CC(C)NC1CN(c2ncc3c4c(c(-c5ncc(F)c6sc(N)c(C#N)c56)c(F)c3n2)COC4)CC1O (stereo not drawn) [Example 178D, 2-Amino-7-fluoro-4-(5-fluoro-3-(3-hydroxy-4-(isopropylamino)pyrrolidin-1-yl)-7,9-dihydrofuro[3,4-f]quinazolin-6-yl)thieno[3,2-c]pyridine-3-carbonitrile]
14 |  | greater than 10 fold |  |  | CC(C)NC1CN(c2ncc3c4c(c(-c5ncc(F)c6sc(N)c(C#N)c56)c(F)c3n2)COC4)CC1(C)O (stereo not drawn) [Example 183D, 2-Amino-7-fluoro-4-(5-fluoro-3-(3-hydroxy-4-(isopropylamino)-3-methylpyrrolidin-1-yl)-7,9-dihydrofuro[3,4-f]quinazolin-6-yl)thieno[3,2-c]pyridine-3-carbonitrile]
15 |  | greater than 10 fold |  |  | C[C@H](O)CN(C)[C@H]1CCN(c2ncc3c4c(c(-c5ncc(F)c6sc(N)c(C#N)c56)c(F)c3n2)COC4)C1 [Example 256D, 2-Amino-7-fluoro-4-(5-fluoro-3-((S)-3-(((S)-2-hydroxypropyl)(methyl)-amino)pyrrolidin-1-yl)-7,9-dihydrofuro[3,4-f]-quinazolin-6-yl)thieno-[3,2-c]pyridine-3-carbo-nitrile]
16 |  | greater than 10 fold |  |  | CN1CC23COCC2(C1)CN(c1ncc2c4c(c(-c5ncc(F)c6sc(N)c(C#N)c56)c(F)c2n1)COC4)C3 (stereo not drawn) [Example 257D, 2-Amino-7-fluoro-4-(5-fluoro-3-(5-methyl-dihydro-1H,4H-3a,6a-(methanooxymethano)-pyrrolo[3,4-c]pyrrol-2(3H)-yl)-7,9-dihydro-furo[3,4-f]quinazolin-6-yl)thieno[3,2-c]pyridine-3-carbonitrile]
17 |  | greater than 10 fold |  |  | [2H]C([2H])([2H])C([2H])([2H])N1CCCC2C1CCN2c1ncc2c3c(c(-c4ncc(F)c5sc(N)c(C#N)c45)c(F)c2n1)COC3 (stereo not drawn) [Example 274D, 2-Amino-4-(3-(4-(ethyl-d5)octahydro-1H-pyrrolo[3,2-b]pyridin-1-yl)-5-fluoro-7,9-dihydrofuro[3,4-f]quinazolin-6-yl)-7-fluorothieno[3,2-c]pyridine-3-carbonitrile]
